Test results reported in the supplement of paper PMC10849652.
The list shows a part of the results.

By UniProt entry, the sequences of proteins in these tests, tags left out. Where a name states a change or a piece, a line headed by the entry shows the natural chain unless it says otherwise.
UniProt Q96P47: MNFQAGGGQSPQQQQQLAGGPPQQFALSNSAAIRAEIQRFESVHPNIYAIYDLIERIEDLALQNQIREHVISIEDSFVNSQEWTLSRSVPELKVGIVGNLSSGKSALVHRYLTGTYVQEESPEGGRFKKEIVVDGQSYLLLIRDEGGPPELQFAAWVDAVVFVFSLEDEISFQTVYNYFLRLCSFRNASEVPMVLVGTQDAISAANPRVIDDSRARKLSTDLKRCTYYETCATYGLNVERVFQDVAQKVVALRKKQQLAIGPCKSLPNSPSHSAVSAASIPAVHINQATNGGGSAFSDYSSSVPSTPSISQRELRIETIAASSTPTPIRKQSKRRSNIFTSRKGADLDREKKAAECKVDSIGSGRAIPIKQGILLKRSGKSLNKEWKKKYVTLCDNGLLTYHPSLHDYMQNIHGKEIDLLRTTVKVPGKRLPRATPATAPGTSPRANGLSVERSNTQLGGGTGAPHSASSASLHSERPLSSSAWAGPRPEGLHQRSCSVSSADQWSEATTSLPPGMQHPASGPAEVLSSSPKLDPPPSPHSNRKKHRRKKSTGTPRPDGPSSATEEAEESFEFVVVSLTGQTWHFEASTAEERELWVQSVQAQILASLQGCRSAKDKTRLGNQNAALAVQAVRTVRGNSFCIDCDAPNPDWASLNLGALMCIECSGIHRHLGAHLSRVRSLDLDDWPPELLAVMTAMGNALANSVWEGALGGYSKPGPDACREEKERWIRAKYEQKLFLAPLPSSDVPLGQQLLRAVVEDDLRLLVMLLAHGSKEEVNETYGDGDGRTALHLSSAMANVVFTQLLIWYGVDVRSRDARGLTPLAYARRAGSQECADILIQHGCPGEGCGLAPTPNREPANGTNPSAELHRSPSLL
UniProt Q9BV10: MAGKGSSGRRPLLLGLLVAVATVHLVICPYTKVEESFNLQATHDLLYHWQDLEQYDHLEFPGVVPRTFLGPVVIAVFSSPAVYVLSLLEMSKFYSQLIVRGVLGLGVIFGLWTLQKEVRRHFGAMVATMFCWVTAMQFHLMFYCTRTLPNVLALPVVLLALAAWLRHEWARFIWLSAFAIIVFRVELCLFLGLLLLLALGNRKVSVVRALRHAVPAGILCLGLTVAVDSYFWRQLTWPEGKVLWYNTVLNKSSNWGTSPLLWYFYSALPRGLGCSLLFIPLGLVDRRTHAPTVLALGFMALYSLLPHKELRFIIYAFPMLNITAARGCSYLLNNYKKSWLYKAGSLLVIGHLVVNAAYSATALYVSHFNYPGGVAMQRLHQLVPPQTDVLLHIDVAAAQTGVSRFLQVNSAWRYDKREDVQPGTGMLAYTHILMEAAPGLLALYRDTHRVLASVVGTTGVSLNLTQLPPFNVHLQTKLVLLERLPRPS
UniProt Q9UKA4: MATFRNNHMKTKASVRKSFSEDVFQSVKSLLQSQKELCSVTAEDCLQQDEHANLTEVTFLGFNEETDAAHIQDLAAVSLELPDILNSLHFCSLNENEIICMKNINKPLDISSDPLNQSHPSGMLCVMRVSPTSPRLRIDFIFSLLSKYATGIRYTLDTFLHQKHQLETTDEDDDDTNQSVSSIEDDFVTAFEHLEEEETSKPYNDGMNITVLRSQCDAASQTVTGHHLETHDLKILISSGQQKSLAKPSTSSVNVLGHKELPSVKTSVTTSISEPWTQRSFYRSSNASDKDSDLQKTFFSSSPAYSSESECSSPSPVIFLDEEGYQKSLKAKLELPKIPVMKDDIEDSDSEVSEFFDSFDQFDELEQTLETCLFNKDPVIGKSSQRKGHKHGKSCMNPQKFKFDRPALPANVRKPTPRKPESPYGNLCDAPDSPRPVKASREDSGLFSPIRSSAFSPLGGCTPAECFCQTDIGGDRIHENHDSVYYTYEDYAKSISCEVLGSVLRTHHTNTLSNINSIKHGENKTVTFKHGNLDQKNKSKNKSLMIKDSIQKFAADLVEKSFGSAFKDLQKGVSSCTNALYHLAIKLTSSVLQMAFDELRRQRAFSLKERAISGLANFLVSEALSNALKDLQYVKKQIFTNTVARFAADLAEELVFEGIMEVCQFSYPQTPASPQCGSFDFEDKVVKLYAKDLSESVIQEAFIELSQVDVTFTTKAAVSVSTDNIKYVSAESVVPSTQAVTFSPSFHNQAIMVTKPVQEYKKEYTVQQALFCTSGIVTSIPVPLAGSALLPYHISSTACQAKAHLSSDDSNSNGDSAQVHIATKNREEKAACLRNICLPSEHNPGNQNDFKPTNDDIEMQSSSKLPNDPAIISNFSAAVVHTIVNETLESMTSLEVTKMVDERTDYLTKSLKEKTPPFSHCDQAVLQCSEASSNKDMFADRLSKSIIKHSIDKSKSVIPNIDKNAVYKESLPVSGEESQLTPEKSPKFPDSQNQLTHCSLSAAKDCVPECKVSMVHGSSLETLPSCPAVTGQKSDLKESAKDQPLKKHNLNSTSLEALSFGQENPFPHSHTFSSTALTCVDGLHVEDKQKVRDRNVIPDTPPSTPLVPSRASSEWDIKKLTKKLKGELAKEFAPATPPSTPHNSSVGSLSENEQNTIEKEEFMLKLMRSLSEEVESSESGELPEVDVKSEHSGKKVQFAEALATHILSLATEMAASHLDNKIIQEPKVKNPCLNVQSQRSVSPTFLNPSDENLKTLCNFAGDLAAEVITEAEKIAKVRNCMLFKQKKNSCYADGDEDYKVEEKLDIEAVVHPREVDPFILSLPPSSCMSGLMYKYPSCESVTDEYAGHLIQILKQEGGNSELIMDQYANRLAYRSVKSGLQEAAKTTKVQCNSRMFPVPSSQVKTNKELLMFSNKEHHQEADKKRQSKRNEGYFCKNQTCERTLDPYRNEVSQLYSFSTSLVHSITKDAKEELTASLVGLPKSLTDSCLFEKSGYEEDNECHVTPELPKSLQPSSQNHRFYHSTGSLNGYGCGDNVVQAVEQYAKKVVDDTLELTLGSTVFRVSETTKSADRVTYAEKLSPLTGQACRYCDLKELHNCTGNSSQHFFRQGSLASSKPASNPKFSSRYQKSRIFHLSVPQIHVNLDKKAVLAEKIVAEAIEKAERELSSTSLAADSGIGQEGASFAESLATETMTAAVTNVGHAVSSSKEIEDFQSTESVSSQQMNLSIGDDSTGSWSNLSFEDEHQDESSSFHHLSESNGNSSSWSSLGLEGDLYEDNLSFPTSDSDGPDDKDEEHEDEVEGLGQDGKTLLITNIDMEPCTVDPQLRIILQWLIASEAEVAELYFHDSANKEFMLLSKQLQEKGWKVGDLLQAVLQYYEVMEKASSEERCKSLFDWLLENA
UniProt P49419: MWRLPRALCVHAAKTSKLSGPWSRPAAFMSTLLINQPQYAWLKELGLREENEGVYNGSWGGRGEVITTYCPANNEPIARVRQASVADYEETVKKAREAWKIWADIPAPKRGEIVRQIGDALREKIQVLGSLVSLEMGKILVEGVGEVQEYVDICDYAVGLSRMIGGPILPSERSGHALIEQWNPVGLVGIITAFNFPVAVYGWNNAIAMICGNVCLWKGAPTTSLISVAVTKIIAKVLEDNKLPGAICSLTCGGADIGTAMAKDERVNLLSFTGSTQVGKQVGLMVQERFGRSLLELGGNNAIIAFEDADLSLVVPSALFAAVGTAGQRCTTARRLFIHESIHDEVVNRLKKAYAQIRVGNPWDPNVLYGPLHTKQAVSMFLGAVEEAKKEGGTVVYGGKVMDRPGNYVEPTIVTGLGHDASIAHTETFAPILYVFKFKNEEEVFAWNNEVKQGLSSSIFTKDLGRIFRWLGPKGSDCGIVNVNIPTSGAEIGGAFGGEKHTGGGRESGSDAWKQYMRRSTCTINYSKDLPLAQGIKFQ
UniProt Q9UEY8: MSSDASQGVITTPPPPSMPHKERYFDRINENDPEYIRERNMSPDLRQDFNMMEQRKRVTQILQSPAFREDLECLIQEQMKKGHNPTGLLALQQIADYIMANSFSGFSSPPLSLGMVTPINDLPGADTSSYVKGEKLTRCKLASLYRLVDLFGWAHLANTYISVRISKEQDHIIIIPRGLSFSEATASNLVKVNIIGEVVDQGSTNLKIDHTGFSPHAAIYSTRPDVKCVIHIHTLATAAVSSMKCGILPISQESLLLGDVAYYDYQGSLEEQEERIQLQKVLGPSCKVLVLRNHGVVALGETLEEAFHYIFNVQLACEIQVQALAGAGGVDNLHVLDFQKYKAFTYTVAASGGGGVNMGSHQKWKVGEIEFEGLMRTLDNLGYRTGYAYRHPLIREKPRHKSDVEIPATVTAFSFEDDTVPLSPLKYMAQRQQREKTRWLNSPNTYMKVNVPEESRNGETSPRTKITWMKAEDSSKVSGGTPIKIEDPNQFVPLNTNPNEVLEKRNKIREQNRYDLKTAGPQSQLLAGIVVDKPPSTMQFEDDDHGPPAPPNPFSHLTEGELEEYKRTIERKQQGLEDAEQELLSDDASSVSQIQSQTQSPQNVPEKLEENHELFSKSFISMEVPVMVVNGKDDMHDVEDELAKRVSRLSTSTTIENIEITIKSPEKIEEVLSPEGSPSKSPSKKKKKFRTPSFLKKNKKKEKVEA
UniProt Q9H8T0: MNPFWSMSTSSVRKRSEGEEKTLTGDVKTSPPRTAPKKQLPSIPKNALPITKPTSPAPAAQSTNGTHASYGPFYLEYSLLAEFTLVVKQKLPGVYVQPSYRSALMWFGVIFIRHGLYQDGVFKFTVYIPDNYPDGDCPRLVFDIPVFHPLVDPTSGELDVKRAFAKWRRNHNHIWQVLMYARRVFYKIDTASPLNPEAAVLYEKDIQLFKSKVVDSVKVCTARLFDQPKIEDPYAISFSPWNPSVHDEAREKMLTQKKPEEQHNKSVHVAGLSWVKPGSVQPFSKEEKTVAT
UniProt P55008: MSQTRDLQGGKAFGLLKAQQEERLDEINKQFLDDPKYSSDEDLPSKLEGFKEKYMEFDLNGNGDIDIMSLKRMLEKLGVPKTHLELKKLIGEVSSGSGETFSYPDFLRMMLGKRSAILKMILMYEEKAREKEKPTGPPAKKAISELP
UniProt P05091: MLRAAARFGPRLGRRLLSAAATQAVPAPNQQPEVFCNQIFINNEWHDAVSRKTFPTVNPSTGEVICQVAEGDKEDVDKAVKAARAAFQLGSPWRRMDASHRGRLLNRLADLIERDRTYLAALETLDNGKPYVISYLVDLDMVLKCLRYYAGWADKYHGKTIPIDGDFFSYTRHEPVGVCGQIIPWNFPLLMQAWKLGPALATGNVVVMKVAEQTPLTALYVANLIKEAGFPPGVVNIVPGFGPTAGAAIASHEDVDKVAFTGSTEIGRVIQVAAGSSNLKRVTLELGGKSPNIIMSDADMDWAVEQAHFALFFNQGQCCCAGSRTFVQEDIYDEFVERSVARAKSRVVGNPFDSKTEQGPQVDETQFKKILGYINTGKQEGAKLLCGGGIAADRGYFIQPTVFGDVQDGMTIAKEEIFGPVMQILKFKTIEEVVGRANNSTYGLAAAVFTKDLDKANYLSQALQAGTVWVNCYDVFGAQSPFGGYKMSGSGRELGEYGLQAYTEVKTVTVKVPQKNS
UniProt Q6NS38: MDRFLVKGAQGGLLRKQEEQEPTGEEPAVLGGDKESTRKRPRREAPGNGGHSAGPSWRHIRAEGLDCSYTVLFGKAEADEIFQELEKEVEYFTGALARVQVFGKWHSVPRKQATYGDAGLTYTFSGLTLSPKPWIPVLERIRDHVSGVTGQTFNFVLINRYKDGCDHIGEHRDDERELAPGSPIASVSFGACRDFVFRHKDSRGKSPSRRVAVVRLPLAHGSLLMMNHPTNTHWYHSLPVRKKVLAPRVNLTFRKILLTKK

Legend:
Assay in all cases: log2 fold change, soluble protein after heating vs DMSO (PISA); higher = thermal stabilisation; K562 cells, 10 uM, 30 min; active = over 0.2 and 3.5 SD of the protein, either way, in both replicates (recomputed)
[1] = compound: CC1=C(C=C(C=C1)NC(=O)C2=CC(=CC=C2)C(C)(C)C#N)NC3=CC4=C(C=C3)N=CN(C4=O)C
Summary of the method: (§1)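 K562 cells (2×10^6 cells/mL) were treated with 10 μM compound for 30 min, and aliquots were heated for 3 min over 48°C-58°C. Pooled aliquots were extracted in PBS with 0.5% NP-40 at 4°C, and the supernatant after 21,000xg for 90 min was measured by TMTpro 16plex LC-MS/MS with channel sums equalised. Reported thermal stability, relative to control samples and from duplicates, is a log2 fold change.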

[2] = compound: CC1=C(C=C(C=C1)NC(=O)C2=CC(=CC=C2)N(C)C)NC(=O)C3=CC=C(C=C3)O
Summary of the method: as §1

[3] = compound: CC1=CC=C(C=C1)SC2=C3C=C(SC3=CN=C2)C(=O)N
Summary of the method: as §1

[4] = compound: CC1=NC(=CC=C1)C2=C(N=C(N2)C(C)(C)C)C3=CC4=NC=CN=C4C=C3
Summary of the method: as §1

Nexturastat A = compound: CCCCN(Cc1ccc(C(=O)NO)cc1)C(=O)Nc1ccccc1 [Nexturastat A]
Summary of the method: as §1

[5] = compound: CCCS(=O)(=O)Nc1ccc(F)c(C(=O)c2c[nH]c3ncc(Cl)cc23)c1F
Summary of the method: as §1

[6] = compound: CCCc1cc(C)[nH]c(=O)c1CNC(=O)c1cc(-c2ccnc(N3CCN(C)CC3)c2)cc2c1cnn2C(C)C
Summary of the method: as §1

givinostat = compound: CCN(CC)Cc1ccc2cc(COC(=O)Nc3ccc(C(=O)NO)cc3)ccc2c1 [givinostat]
Summary of the method: as §1

barasertib = compound: CCN(CCCOc1ccc2c(Nc3cc(CC(=O)Nc4cccc(F)c4)[nH]n3)ncnc2c1)CCOP(=O)(O)O [barasertib]
Summary of the method: as §1

[7] = compound: CC[C@@H]1C(=O)N(C)c2cnc(Nc3ccc(C(=O)NC4CCN(C)CC4)cc3OC)nc2N1C1CCCC1
Summary of the method: as §1

volasertib = compound: CC[C@@H]1C(=O)N(C)c2cnc(Nc3ccc(C(=O)N[C@H]4CC[C@H](N5CCN(CC6CC6)CC5)CC4)cc3OC)nc2N1C(C)C [volasertib]
Summary of the method: as §1

[8] = compound: CC[C@H](C)N1C=C(C2=C(C=C(C=C21)C3=CN=C(C=C3)N4CCNCC4)C(=O)NCC5=C(C=C(NC5=O)C)C)C
Summary of the method: as §1

epoxomicin = compound: CC[C@H](C)[C@@H](C(=O)N[C@@H]([C@@H](C)O)C(=O)N[C@@H](CC(C)C)C(=O)[C@]1(CO1)C)NC(=O)[C@H]([C@@H](C)CC)N(C)C(=O)C [epoxomicin]
Summary of the method: as §1

vemurafenib = compound: CCCS(=O)(=O)Nc1ccc(F)c(C(=O)c2c[nH]c3ncc(-c4ccc(Cl)cc4)cc23)c1F [vemurafenib]
Summary of the method: as §1

[9] = compound: CCn1cc(-c2ccnc3[nH]c(-c4cccc(CN(C)C)c4)cc23)c(-c2ccc(NC(=O)N(C)C)cc2)n1
Summary of the method: as §1

[10] = compound: CN(C)CC(=O)Nc1ccc2[nH]c(=O)c3ccccc3c2c1
Summary of the method: as §1

rosiglitazone = compound: CN(CCOC1=CC=C(C=C1)C[C@H]2C(=O)NC(=O)S2)C3=CC=CC=N3 (racemic) [rosiglitazone]
Summary of the method: as §1

[11] = compound: CN1C2=C(C3=C1C(=O)N(N=C3)CC4=CC(=CC=C4)N)SC(=C2)S(=O)C
Summary of the method: as §1

[12] = compound: CN1CCC(CNc2ccc3ncc(-c4cccc(OC(F)(F)F)c4)n3n2)CC1
Summary of the method: as §1

[13] = compound: CCn1c(C(=O)N(C2CC2)C2CC2)cc2c3c(ncn3C)c(Nc3cc(C)n(C)n3)nc21
Summary of the method: as §1

| Target | log2 fold change [1] | log2 fold change [2] | log2 fold change [3] | log2 fold change [4] | log2 fold change (Nexturastat A) | log2 fold change [5] | log2 fold change [6] | log2 fold change (givinostat) | log2 fold change (barasertib) | log2 fold change [7] | log2 fold change (volasertib) | log2 fold change [8] | log2 fold change (epoxomicin) | log2 fold change (vemurafenib) | log2 fold change [9] | log2 fold change [10] | log2 fold change (rosiglitazone) | log2 fold change [11] | log2 fold change [12] | log2 fold change [13] |
| --- | --- | --- | --- | --- | --- | --- | --- | --- | --- | --- | --- | --- | --- | --- | --- | --- | --- | --- | --- | --- |
| AGAP3 isoform 4 (UniProt Q96P47) | inactive: 0.037 | inactive: 0.071 | inactive: -0.039 | inactive: -0.081 | inactive: 0.252 | inactive: -0.022 | inactive: 0.089 | inactive: 0.113 | inactive: 0.199 | inactive: 0.154 | inactive: -0.038 | inactive: 0.105 | inactive: 0.034 | – | – | – | – | – | – | – |
| ALDOC (UniProt J3QKP5) | inactive: -0.203 | inactive: 0.018 | inactive: -0.139 | inactive: -0.402 | inactive: 0.157 | inactive: -0.181 | inactive: -0.051 | – | inactive: 0.13 | inactive: 0.066 | inactive: 0.237 | inactive: -0.088 | inactive: -0.106 | inactive: -0.456 | inactive: -0.098 | inactive: -0.333 | inactive: -0.192 | inactive: 0.198 | inactive: -0.548 | – |
| ALG12 (UniProt Q9BV10) | inactive: -0.015 | – | inactive: 0.024 | inactive: -0.072 | inactive: -0.014 | inactive: 0.049 | inactive: -0.032 | inactive: 0.099 | inactive: 0.059 | inactive: 0.119 | inactive: -0.02 | – | inactive: -0.045 | inactive: -0.008 | – | inactive: 0.066 | inactive: 0.016 | inactive: -0.043 | – | inactive: 0 |
| AKAP11 (UniProt Q9UKA4) | inactive: 0.047 | – | – | inactive: -0.209 | – | – | – | – | – | inactive: -0.115 | – | – | – | – | inactive: 0.042 | – | – | – | inactive: 0.175 | – |
| ALDH7A1 (UniProt P49419) | inactive: -0.104 | – | – | – | inactive: 0.037 | – | inactive: 0.297 | – | – | inactive: -0.005 | – | – | inactive: 0.055 | – | inactive: 0.19 | – | – | – | inactive: -0.018 | – |
| AFF4 (UniProt Q9UHB7) | inactive: 0.091 | – | – | – | inactive: 0.29 | – | inactive: 0 | inactive: 0.199 | inactive: -0.11 | – | – | – | inactive: -0.046 | – | inactive: 0.132 | – | inactive: 0.021 | inactive: -0.049 | inactive: -0.01 | inactive: -0.008 |
| ADD3 isoform 2 (UniProt Q9UEY8) | inactive: 0.034 | inactive: -0.021 | inactive: -0.08 | inactive: -0.017 | inactive: -0.029 | inactive: 0.014 | inactive: -0.017 | – | – | inactive: 0.021 | inactive: -0.037 | – | inactive: -0.022 | inactive: 0.059 | inactive: 0.066 | inactive: 0.036 | – | inactive: -0.093 | inactive: -0.128 | – |
| AKTIP isoform 2 (UniProt Q9H8T0) | inactive: 0.054 | – | inactive: 0.068 | – | inactive: 0.103 | inactive: 0.075 | inactive: -0.099 | – | inactive: 0.389 | inactive: -0.084 | inactive: -0.288 | – | inactive: 0.02 | – | – | – | inactive: -0.374 | – | – | – |
| AIF1 (UniProt P55008) | inactive: -0.042 | inactive: -0.039 | inactive: -0.056 | – | inactive: 0.048 | inactive: 0 | – | inactive: -0.057 | inactive: -0.102 | – | inactive: 0.047 | – | active: -0.727 | inactive: -0.112 | – | inactive: 0.01 | – | – | – | – |
| ALDH2 isoform 2 (UniProt P05091) | inactive: 0.075 | inactive: -0.049 | inactive: -0.106 | – | inactive: -0.103 | inactive: -0.141 | – | – | inactive: 0.099 | inactive: 0.183 | inactive: 0.033 | – | inactive: -0.176 | inactive: -0.023 | inactive: -0.014 | inactive: -0.015 | – | – | inactive: -0.072 | – |
| ALKBH2 (UniProt Q6NS38) | inactive: -0.171 | inactive: 0.196 | inactive: -0.217 | inactive: -0.015 | inactive: 0.225 | inactive: -0.146 | inactive: -0.088 | – | inactive: 0.017 | inactive: -0.002 | inactive: -0.004 | inactive: -0.024 | inactive: -0.042 | inactive: -0.042 | inactive: -0.034 | inactive: -0.044 | inactive: 0.121 | inactive: 0.117 | inactive: 0.105 | – |
